Patent publication US20050164976A1, “Combination of a cdk inhibitor and 5-fu for the tratment of cancer” (Cyclacel Limited, priority 2002, published 2005)

Experiments:
HT29 cells = experiment: cells; details: Homo sapiens, HT-29
Description: Cells were washed in media to inactivate trypsin before reseeding or analysis.

MCF7 cells = experiment: cells; details: Homo sapiens
Protocol: MCF7 cells were seeded at 3,000/well in 96 well plates. Cell were allowed to settle overnight, and medium replaced with drug-containing medium the next day. Nine different drug treatments were tested, in triplicate, in each plate.

[1] = test system: human mammary cancer xenograft MAXF 857; details: 10 μM roscovitine alone

CC[C@H](CO)Nc1nc(NCc2ccccc2)c2ncn(C(C)C)c2n1 [roscovitine, 6-benzylamino-2-[(R)-1-ethyl-2-hydroxyethylamino]-9-isopropylpurine]
IC50 (HT29 cells): 20 µM
IC50 (MCF7 cells): 10 µM
relative colony count [1]: 77%
